Reference: patent publication US8975384B2, “Tag peptide and use thereof” (Osaka University, priority 2008, dated 2015)

test system: P20.1 antibody-Sepharose; experiment: Pull-down efficiency with P20.1 antibody-immobilized beads; format: binding, mouse; conditions: HEK293T culture supernatant, sandwich ELISA
Procedure: Three different hGH-γC-P4 fusion proteins, which have P4×1, P4×3 or P4×5, were separately expressed in HEK293T cells. The fusion protein in the separate cell culture supernatant was quantified by the sandwich ELISA (which adopts a system of hGH antibody-mediated capture+anti-BAS serum-mediated detection, and is not dependent on the responsiveness to the P20.1 antibody) (before pull-down). Aside from this, to 1 mL of the cell culture supernatant, 20 μL of the P20.1 antibody-Sepharose (bead form) was added, and then the mixture was allowed to react at 4° C. for 1 hour. After the beads were precipitated by centrifugation, the fusion protein in the supernatant was quantified by the sandwich ELISA (which adopts a system of hGH antibody-mediated capture+anti-BAS serum-mediated detection, and is not dependent on the responsiveness to the P20.1 antibody) (after pull-down). The fusion protein purified with Ni-NTA agarose was used as a standard, and based on the standard curve, the fusion protein concentrations before and after pull-down by the P20.1 antibody were determined. As is clear from Table 4, 3 to 5 repeats of the P4 sequence achieves the binding efficiency of about 80%.

Substance | Fusion protein Before pull-down [µg/mL]
P4 × 3: hGH/fibrinogen γC fusion protein tagged with 3 repeats of the P4 sequence GYPGQV | 0.98
P4 × 5: hGH/fibrinogen γC fusion protein tagged with 5 repeats of the P4 sequence GYPGQV | 0.85
P4: hGH/fibrinogen γC fusion protein tagged with 1 repeat of the P4 sequence GYPGQV | 0.7
